Source: patent US20160046678A1 (ZYNGENIA, published 2016)
Results are given in words; binding and its absence hold for the method and conditions named. Some results given as binding are weak or reduced against the parent protein; the word gives no strength.

By UniProt entry, the sequences of proteins in these tests, tags left out. Residues count along the entry.
UniProt P05231, residues 30-212: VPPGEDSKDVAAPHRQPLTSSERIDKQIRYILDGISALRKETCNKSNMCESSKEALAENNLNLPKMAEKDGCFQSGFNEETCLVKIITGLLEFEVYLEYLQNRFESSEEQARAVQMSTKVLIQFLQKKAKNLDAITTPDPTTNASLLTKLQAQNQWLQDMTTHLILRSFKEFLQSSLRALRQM

B1: ILB646 (peptide)
peptide: YWAWQQEFQWGQAGQGSATGGSSFNEDCMWDPLLMDCAYSPGSYWAWQQEFQWGQAGQGSATGGSSFNEDCMWDPLLMDCAYSP
B2: ILB647 (peptide)
peptide: YYQGFPWFQIGQAGQGSATGGSSFNEDCMWDPLLMDCAYSP
B3: ILB648 (peptide)
peptide: FFYQWSYGWSGQAGQGSFNEDCMWDPLLMDCAYSP
B4: ILB649 (peptide)
peptide: YEEHCALFPTDWICTLH
B5: ILB650 (peptide)
peptide: WRWHAEWDWYGQAGQGSATGGSSFNEDCMWDPLLMDCAYSP
B6: ILB652 (peptide)
peptide: WRWEFGYYYHGQAGQGSATGGSSFNEDCMWDPLLMDCAYSP
B7: ILB653 (peptide)
peptide: MFYEYQWWIHGQAGQGSFNEDCMWDPLLMDCAYSP
B8: ILB654 (peptide)
peptide: PDWITWQPAWGQAGQGSATGGSSFNEDCMWDPLLMDCAYSPQGSATGGSSFNEDCMWDPLLMDCAYSP
B9: ILB655 (peptide)
peptide: WPFYEYIIHMGQAGQGSATGGSSFNEDCMWDPLLMDCAYSP
B10: ILB656 (peptide)
peptide: RPYYYQWHIWGQAGQGSATGGSSFNEDCMWDPLLMDCAYSP
B11: ILB657 (peptide)
peptide: TGFFWSWSFGGQAGQGSATGGSSFNEDCMWDPLLMDCAYSP
B12: ILB659 (peptide)
peptide: SKMEQYPWNMGQAGQGSATGGSSFNEDCMWDPLLMDCAYSPQGSATGGSSFNEDCMWDPLLMDCAYSP
B13: ILB660 (peptide)
peptide: YHWQQQHQYHGQAGQGSATGGSSFNEDCMWDPLLMDCAYSPQGSATGGSSFNEDCMWDPLLMDCAYSP
B14: ILB661 (peptide)
peptide: DWQVYYKTWIGQAGQGSATGGSGSTASSGSGSSFNEDCMWDPLLMDCAYSPQGSATGGSGSTASSGSGSSFNEDCMWDPLLMDCAYSP
B15: ILB662 (peptide)
peptide: YRYTTYWWYSGQAGQGSATGGSGSTASSFNEDCMWDPLLMDCAYSP
B16: ILB664 (peptide)
peptide: QCCMSQVSWYVGQAGQGSATGGSSFNEDCMWDPLLMDCAYSPQGSATGGSSFNEDCMWDPLLMDCAYSPQGSATGGSSFNEDCMWDPLLMDCAYSP
B17: ILB665 (peptide)
peptide: YYQGFPWFQIGQAGQGSATGGSSFNEDCMWDPLLMDCAYSPGGGSYYQGFPWFQIGQAGQGSATGGSSFNEDCMWDPLLMDCAYSP
B18: ILB666 (peptide)
peptide: QWSFHWWSHTGQAGQGSATGGSSFNEDCMWDPLLMDCAYSP
B19: ILB667 (peptide)
peptide: WTFEWWIYTKGQAGQGSATGGSSFNEDCMWDPLLMDCAYSP
B20: ILB669 (peptide)
peptide: ADRFFVWNPYGQAGQGSATGGSSFNEDCMWDPLLMDCAYSPQGSATGGSSFNEDCMWDPLLMDCAYSP
B21: ILB670 (peptide)
peptide: QRYMMQTMLIGQAGQGSATGGSSFNEDCMWDPLLMDCAYSPQGSATGGSSFNEDCMWDPLLMDCAYSP
B22: ILB671 (peptide)
peptide: PWSKATQPGWGQAGQGSATGGSGSTASSFNEDCMWDPLLMDCAYSPQGSATGGSGSTASSFNEDCMWDPLLMDCAYSPQGSATGGSGSTASSFNEDCMWDPLLMDCAYSP
B23: ILB672 (peptide)
peptide: IWWGYSWDHYGQAGQGSATGGSSFNEDCMWDPLLMDCAYSP
B24: ILB673 (peptide)
peptide: IVNFTWNFLSGQAGQGSFNEDCMWDPLLMDCAYSP
B25: ILB675 (peptide)
peptide: MQFSWTQHFFGQAGQGSATGGSGSTASSGSGSSFNEDCMWDPLLMDCAYSPGMQFSWTQHFFGQAGQGSATGGSGSTASSGSGSSFNEDCMWDPLLMDCAYSP
B26: ILB676 (peptide)
peptide: LHANSIATNWGQAGQGSATGGSSFNEDCMWDPLLMDCAYSP
B27: ILB677 (peptide)
peptide: PDSWCHTLYWQLIHCERQE
B28: ILB678 (peptide)
peptide: QFPYESPPSIGQAGQGSATGGSSFNEDCMWDPLLMDCAYSP
B29: ILB680 (peptide)
peptide: YYQGFPWFQIGQAGQGSATGGSSFNEDCMWDPLLMDCAYSPGGGSYYQGFPWFQIGQAGQGSATGGSSFNEDCMWDPLLMDCAYSPGGGSYYQGFPWFQIGQAGQGSATGGSSFNEDCMWDPLLMDCAYSP
B30: ILB681 (peptide)
peptide: B17 peptide
B31: ILB739 (peptide)
peptide: GEAWCWDPIRMDVRVCSVFI
B32: ILB740 (peptide)
peptide: GPYSCPWDPMKMECAYSP
B33: ILB741 (peptide)
peptide: EYSSCNWDPLLMQCQRVV
B34: ILB742 (peptide)
peptide: FHSTCFWDPLLMRCVSAP
B35: ILB743 (peptide)
peptide: SVSPCIWDPLLMMCGNYS
B36: ILB744 (peptide)
peptide: VGVDCPWDPLMMECAGRN
B37: ILB745 (peptide)
peptide: VSAECYWDPLMMQCSTDM
B38: ILB747 (peptide)
peptide: FGDTCFWHPFNEDMCESKP
B39: ILB748 (peptide)
peptide: QWLHCFWDPLMMKCVTVS
B40: ILB749 (peptide)
peptide: TPHPCHWDPMIMYCMLEM
B41: ILB750 (peptide)
peptide: HEEDCWWDPLIMQCFNRT
B42: ILB751 (peptide)
peptide: HTANCPWDPLIMNCSFQS
B43: ILB752 (peptide)
peptide: YTKHCQRLPTYKICNLFM
B44: ILB755 (peptide)
peptide: ADSWCHTLYWQLQHCLSQE
B45: ILB756 (peptide)
peptide: HSRWCYWEPIRMIEMCMGDK
B46: ILB757 (peptide)
peptide: PGVACFWDPLLMSCSYDE
B47: ILB758 (peptide)
peptide: RAFTCPWDPLIMDCAGAS
B48: ILB759 (peptide)
peptide: GDDWCAWDPIRMQCSYTK
B49: ILB760 (peptide)
peptide: EIEQCWWDPMLMEGVCWPSI
B50: ILB761 (peptide)
peptide: HGRSCAWDPLKMDCVWYH
B51: ILB762 (peptide)
peptide: RLGACVWDPLMMQCAWIS
B52: ILB763 (peptide)
peptide: LYPSCPWDPILMQCSALK
B53: ILB764 (peptide)
peptide: PTPLCHWDPLLMHCTASD
B54: ILB765 (peptide)
peptide: TDSWCHTLYWQLHHCAILE
B55: ILB766 (peptide)
peptide: RWNVCAWDPLLMQCASAP
B56: ILB767 (peptide)
peptide: MSVSCNWDPLLMTCRLPT
B57: ILB768 (peptide)
peptide: PGLRCPWDPLMMTCVAHP

Molecular target: IL6 (UniProt P05231)
Assay: MRD identification, Example 48

| Binder | binding |
| --- | --- |
| B1 | binds |
| B2 | binds |
| B3 | binds |
| B4 | binds |
| B5 | binds |
| B6 | binds |
| B7 | binds |
| B8 | binds |
| B9 | binds |
| B10 | binds |
| B11 | binds |
| B12 | binds |
| B13 | binds |
| B14 | binds |
| B15 | binds |
| B16 | binds |
| B17 | binds |
| B18 | binds |
| B19 | binds |

| Binder | binding |
| --- | --- |
| B20 | binds |
| B21 | binds |
| B22 | binds |
| B23 | binds |
| B24 | binds |
| B25 | binds |
| B26 | binds |
| B27 | binds |
| B28 | binds |
| B29 | binds |
| B30 | binds |
| B31 | binds |
| B32 | binds |
| B33 | binds |
| B34 | binds |
| B35 | binds |
| B36 | binds |
| B37 | binds |
| B38 | binds |

| Binder | binding |
| --- | --- |
| B39 | binds |
| B40 | binds |
| B41 | binds |
| B42 | binds |
| B43 | binds |
| B44 | binds |
| B45 | binds |
| B46 | binds |
| B47 | binds |
| B48 | binds |
| B49 | binds |
| B50 | binds |
| B51 | binds |
| B52 | binds |
| B53 | binds |
| B54 | binds |
| B55 | binds |
| B56 | binds |
| B57 | binds |
